Values of other authors in patent US9592265B2, “Modulation of oxidative stress, inflammation, and impaired insulin sensitivity with grape seed extract” (THE REGENTS OF THE UNIVERSITY OF CALIFORNIA, priority 2012, dated 2017).
The name of at least one read-out is uncertain.

Details: after ingestion

For catechins, the “time at which maximum plasma concentrations (Cmax) were observed” value is given as 90 to 120 min.
